Assay results: PubChem BioAssay AID485314 (National Center for Advancing Translational Sciences (NCATS), 2010)
Hit rate of the full screen: of about 340,000 compounds, about 4,500 (1.3%) were called active. This list was built around the results that the source calls inconclusive (neither active nor inactive); the mix of calls is not that of the screen. Calls follow the shape of the dose curve; as a rule, active = well fitted inhibition curve with a large enough effect; inconclusive = small, poorly fitted or top-dose-only effect, or another doubt; inactive = no such curve, though single readings can be large or run the other way. Potencies of inconclusive entries are doubtful fits and often do not repeat.

molecular target: DNA polymerase beta (Homo sapiens) (UniProt P06746); assay: qHTS Assay for Inhibitors of DNA Polymerase Beta; settings: Pol beta primer extension/strand displacement, fluorescence kinetic; activity change, negative = inhibition: at 114 µM (top of the series)
How it was run: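 Homogeneous kinetic assay of primer extension and strand displacement by 10 nM Pol beta, preincubated 15 min at room temperature with compound before 50 nM substrate (final) was added. Read at 0 and 10 min; four-parameter Hill fit.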
% is scaled to controls: 0 for no effect and ±100 for the full control effect; potency is read from the fitted curve at half-maximal effect.

| Compound | Potency | activity change, negative = inhibition |
| --- | --- | --- |
| Cc1ccc(S(=O)(=O)N(C)C)cc1NC(=O)CSc1ncn[nH]1 | inconclusive: 28.2 µM [inhibitor, single point] | – |
| COc1ccc(/C=C/C(=O)N(c2ccccn2)C2CCCCC2)cc1OC | inconclusive: 89.1 µM [inhibitor, partial curve, poor fit] | – |
| COc1ccc(NC(=O)c2sc3nc4c(cc3c2N)CCCCCC4)cc1 | inconclusive: 0.631 µM [inhibitor, partial curve] | – |
| Cc1ccccc1NC(=O)CSc1nc(-c2ccccc2)cn1-c1ccccc1F | inactive | – |
| O=C(OC1CCOC1=O)c1cc(-c2cccc(Br)c2)nc2ccccc12 (configuration not stated) | inconclusive: 79.4 µM [inhibitor, single point] | – |
| CCOc1ccc(CNC(=O)c2ccccc2NC(=O)c2nsc3ccccc23)cc1 | inactive | – |
| Cc1cc(C)c2[nH]c(O)c(N=NC3=NC(=O)CS3)c2c1 | – | inconclusive: -49.3% [inhibitor] |
| COc1cc(/C=N/NC(=O)c2cc3ccccc3cc2O)ccc1OCCN1CCCCC1 | active: 79.4 µM | – |
| Cc1cc(=O)oc2cc(OCC(=O)N/N=C/c3ccccc3[N+](=O)[O-])ccc12 | active: 31.6 µM | – |
| CCOc1ccc(CN2CCN(Cc3cn(CC)nc3C)CC2CCO)cc1 (configuration not stated) | inconclusive: 0.631 µM [inhibitor, full curve, poor fit] | – |
| Oc1ccccc1Oc1ncc(Br)c(N2CCOCC2)n1 | inactive | – |
| CCCCNC(=O)C(=O)N/N=C/c1ccc(OCC(=O)Nc2cccc(OC)c2)c(OC)c1 | inconclusive: 22.4 µM [inhibitor, partial curve] | – |
| CN(C)CCNC(=S)Nc1ccc(Cl)cc1 | inconclusive: 100 µM [inhibitor, single point] | – |
| Cc1cc(C)c(C#N)c(OCC(=O)c2ccc(Br)cc2)n1 | inconclusive: 20 µM [inhibitor, partial curve] | – |
| CC(=O)c1ccc(C(=O)Nc2sc3c(c2C(N)=O)CCN(Cc2ccccc2)C3)cc1 | inconclusive: 0.708 µM [inhibitor, full curve, poor fit] | – |
| COc1ccc(/C(C)=N/Nc2nc3ccccc3n3cnnc23)cc1OC | inconclusive: 14.1 µM [inhibitor, full curve, poor fit] | – |
| Cc1c(-c2ccc(Cl)cc2)c(=O)oc2c(CN3CCN(CCO)CC3)c(O)ccc12 | inactive | – |
| COc1ccc(/C=N/n2c(-c3n[nH]c4c3CCC4)n[nH]c2=S)cc1 | inconclusive: 100 µM [inhibitor, single point] | – |
| CCCC[n+]1ccn(-c2nc3ccccc3nc2[N-]S(=O)(=O)c2cccs2)c1 | active: 17.8 µM | – |
| Cn1c(Cc2cccs2)nnc1SCC(=O)Nc1ccccc1 | inconclusive: 0.398 µM [inhibitor, full curve, poor fit] | – |
| N#CCCn1cc(/C=C2\NC(=S)N(c3ccccc3)C2=O)c(-c2ccc(F)cc2)n1 | inconclusive: 31.6 µM [inhibitor, partial curve] | – |
| CN(C)CCCN(C(=O)c1ccco1)c1nc2cc3c(cc2s1)OCO3 | inconclusive: 44.7 µM [inhibitor, partial curve, poor fit] | – |
| CCOc1ccc(-c2nnn(CC(=O)NCc3ccco3)n2)cc1OCC | inconclusive: 39.8 µM [inhibitor, single point] | – |

| Compound | Potency | activity change, negative = inhibition |
| --- | --- | --- |
| O=C(CN1C(=O)S/C(=C\c2ccccc2F)C1=O)NC1C=CS(=O)(=O)C1 (configuration not stated) | inconclusive: 39.8 µM [inhibitor, full curve] | – |
| CCOc1ccc(CNc2ccc(N3CCN(Cc4ccccc4)CC3)cc2)cc1 | inconclusive: 89.1 µM [inhibitor, single point] | – |
| COc1ccc(CNC(=O)Cn2c(=O)nc(-c3ccccc3F)c3cc(Cl)ccc32)cc1 | inactive | – |
| CCN(CC)C(=O)CSc1nc2cc3c(cc2c(=O)n1CCCCCC(=O)NCc1ccc(OC)cc1)OCO3 | inconclusive: 79.4 µM [inhibitor, single point] | – |
| O=[N+]([O-])c1ccccc1/C=N/N1CCN(c2ccncc2S(=O)(=O)N2CCCCC2)CC1 | inconclusive: 63.1 µM [inhibitor, single point] | – |
| NC(=O)c1cc[n+](Cc2ccccc2Cl)cc1 | inconclusive: 39.8 µM [inhibitor, partial curve, poor fit] | – |
| O=C(CNc1ccc(F)cc1)N/N=C/c1c(O)ccc2ccccc12 | inactive | – |
| CCOC(=O)COc1nc(-c2ccco2)cc(-c2ccco2)c1C#N | inconclusive: 50.1 µM [inhibitor, partial curve] | – |
| CCc1ccc2c(c1)C(NC(C)=O)C(=O)N2CC (configuration not stated) | inactive | – |
| CN1C(=O)Cc2cc(S(=O)(=O)N3CCN(c4cccc(C(F)(F)F)c4)CC3)ccc21 | inconclusive: 4.47 µM [inhibitor, full curve, poor fit] | – |
| Cc1ccc(C)c(NC(=O)c2nc(S(C)(=O)=O)ncc2N(Cc2ccc(C(C)(C)C)cc2)Cc2ccco2)c1 | inactive | – |
| COc1ccc([N+](=O)[O-])cc1NC(=O)Nc1cccc(Cl)c1 | inactive | – |
| O=C(COc1cc2oc(=O)c3c(c2cc1Cl)CCC3)Nc1cccnc1 | inconclusive: 0.447 µM [inhibitor, full curve, poor fit] | – |
| COc1ccccc1C(=O)N1CCCCC1CCN1CCOCC1 (configuration not stated) | inactive | – |
| COc1ccc2cc(C(C)C(=O)N3CCC(C)CC3)ccc2c1 (configuration not stated) | inconclusive: 0.141 µM [inhibitor, full curve, poor fit] | – |
| Nc1ccc2nc(-c3cc(Cl)c(N)c(Cl)c3)[nH]c2c1 | inconclusive: 56.2 µM [inhibitor, partial curve, poor fit] | – |
| CN1CCN(NC(=S)NC2CCCCC2)CC1 | inactive | – |
| CCOC(=O)N1CCC(NC(=O)c2ccc3c(c2)N(Cc2cc(C)ccc2C)C(=O)c2ccccc2S3(=O)=O)CC1 | inconclusive: 28.2 µM [inhibitor, partial curve, poor fit] | – |
| Cc1ccn2c(-c3n[nH]c(=S)n3Cc3ccccc3)c(C)nc2c1 | inconclusive: 100 µM [inhibitor, single point] | – |
| CSc1ccc(NC(=O)N2CC=C(n3c(=O)[nH]c4ccccc43)CC2)cc1 | inconclusive: 89.1 µM [inhibitor, single point] | – |
| Cc1ccc(C(=O)OCc2cc(=O)n3nc(-c4cccs4)sc3n2)cc1 | active: 17.8 µM | – |
| c1ccc2c(Cn3ccnc3)cccc2c1 | inconclusive: 15.8 µM [inhibitor, single point] | – |
| Cn1ccnc1SCC(=O)Nc1ccc2c(c1)COC2=O | inconclusive: 2.24 µM [inhibitor, partial curve, poor fit] | – |

Taken from above.
Entry for Cn1c(Cc2cccs2)nnc1SCC(=O)Nc1ccccc1 under Potency: inconclusive: 0.398 µM [inhibitor, full curve, poor fit]
Entry for Cc1ccc(C(=O)OCc2cc(=O)n3nc(-c4cccs4)sc3n2)cc1 under Potency: active: 17.8 µM
Entry for Cc1ccc(S(=O)(=O)N(C)C)cc1NC(=O)CSc1ncn[nH]1 under Potency: inconclusive: 28.2 µM [inhibitor, single point]

More entries follow.

| Compound | Potency | activity change, negative = inhibition |
| --- | --- | --- |
| O=S(=O)(Nc1cccc(-c2ccc(N3CCOCC3)nn2)c1)c1ccc(F)cc1F | inactive | – |
| CNc1nc2cc([N+](=O)[O-])c([N+](=O)[O-])cc2nc1NC | inconclusive: 3.98 µM [inhibitor, single point] | – |
| O=C1C2CC=CCC2C(=O)N1c1n[nH]c(CCc2ccccc2)n1 (configuration not stated) | inconclusive: 79.4 µM [inhibitor, single point] | – |
| COc1ccccc1CCNC(=O)Cn1c(=O)oc2ccccc21 | – | inconclusive: -95.6% [inhibitor] |
| CCOc1ccc(N2C(=O)CN(O)C=C3N=c4ccccc4=C32)cc1 | inconclusive: 25.1 µM [inhibitor, full curve] | – |
| CNC(=O)COC(=O)/C=C/c1ccc(F)cc1 | inconclusive: 0.126 µM [inhibitor, full curve, poor fit] | – |
| Cn1c(SCC(=O)c2ccc3c(c2)Cc2ccccc2-3)nnc1-c1cccc(N)c1 | active: 0.158 µM | – |
| Nn1cnnc1N/N=C/c1cc([N+](=O)[O-])c(Cl)cc1Cl | inconclusive: 17.8 µM [inhibitor, full curve] | – |
| CC1CCCN(C(C(=O)NC2CCCCC2)c2cc3c(cc2[N+](=O)[O-])OCO3)C1 (configuration not stated) | inconclusive: 12.6 µM [inhibitor, full curve] | – |
| COc1ccccc1NC(=O)Cn1cnc2c(cnn2-c2ccc(C)c(C)c2)c1=O | inconclusive: 56.2 µM [inhibitor, single point] | – |
| N/C(=N\OC(=O)CC1CCCCC1)c1cccc(Br)c1 | inconclusive: 2.82 µM [inhibitor, full curve, poor fit] | – |
| COc1ccc(NC(=O)NNC(=O)c2ccc3ccccc3c2)cc1OC | inconclusive: 14.1 µM [inhibitor, partial curve] | – |
| COc1ccccc1CNC(=O)Cn1ncc2c(C)n(Cc3ccccc3Cl)c(C)c2c1=O | inconclusive: 20 µM [inhibitor, full curve] | – |
| Nc1c(-c2nc(-c3ccccc3)no2)nnn1CC(=O)Nc1ccccc1 | inconclusive: 3.16 µM [inhibitor, full curve] | – |
| O=C(CSc1ccc(Cl)cc1)Nc1ccc(-c2nc3ccccc3[nH]2)cc1 | active: 31.6 µM | – |
| CCOc1ccc2ccccc2c1/C=N/NC(=O)c1ccc(C)nc1 | inconclusive: 79.4 µM [inhibitor, single point] | – |
| O=C(CSc1ccc2nnc(-c3cccs3)n2n1)N1CCCC1 | active: 44.7 µM | – |
| COCCNCC(O)CON=C1c2ccccc2-c2ccccc21 (configuration not stated) | inconclusive: 31.6 µM [inhibitor, single point] | – |
| O=C(NCc1ccccc1)C(=O)NCC(c1ccco1)N1CCN(c2ccccc2F)CC1 (configuration not stated) | inconclusive: 1 µM [inhibitor, full curve, poor fit] | – |
| COc1ccc(NC(=O)c2cc3cccc(OC)c3oc2=Nc2ccc(C(=O)O)cc2)cc1OC | inconclusive: 100 µM [inhibitor, single point] | – |
| CCC(NC(=O)NCc1ccccc1)(C(F)(F)F)C(F)(F)F | inactive | – |
